In patent US11548935B2 (NeoMatrix Therapeutics Inc., priority 2016, dated 2023):
Where two headings read alike, the source gives them in different places. At least one peptide structure holds a part that was inferred or is arguable (an end, a ring closure or a residue). Peptide text beside a SMILES is read from it.

By UniProt entry, the sequences of proteins in these tests, tags left out. Residues count along the entry.
UniProt P01127, 82-190 limits assumed: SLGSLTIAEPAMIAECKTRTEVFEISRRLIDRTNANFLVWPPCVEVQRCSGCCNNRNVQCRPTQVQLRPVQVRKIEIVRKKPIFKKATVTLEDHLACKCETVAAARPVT
UniProt P01137, 279-390 limits assumed, species assumed: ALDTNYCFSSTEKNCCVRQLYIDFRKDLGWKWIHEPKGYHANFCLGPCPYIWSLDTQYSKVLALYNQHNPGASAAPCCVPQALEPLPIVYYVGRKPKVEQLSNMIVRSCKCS
UniProt P05019, 49-118, species assumed: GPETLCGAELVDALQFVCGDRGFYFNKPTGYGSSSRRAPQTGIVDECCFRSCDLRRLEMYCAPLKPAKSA

How the values were obtained:
[1] = tested on: burn injury progression; settings: cited from earlier work
[2] = tested on: adult human dermal fibroblasts (AHDF); settings: oxidative and cytokine stress and/or nutrient withdrawal, in the presence of PDGF-BB; cited from earlier work
[3] = biological target: T1, PDGF-BB (Homo sapiens, UniProt P01127); assay: Surface plasmon resonance (Biacore) binding to growth factor; settings: plasmon surface resonance (Biacore T200)
Description: (§1) To study the binding activities of these peptides, real time interactions of P12, P46, and cNP8 with growth factors were determined by plasmon surface resonance (Biacore T200).
In the Biacore2000 system, binding constants from kinetic data are determined by passing varying concentrations of FN peptides (analytes) over chip surfaces which are coupled with PDGF-BB (ligand), respectively. All kinetic experiments are carried out at 20° C. at a flow rate of 20 μl/min. For mass transport experiments, each analyte is injected at a fixed concentration and run at flow rates ranging from 5 to 75 μl/min. All analytes are injected over PDGF-BB ligand surfaces as well as over a control surface for 120 s, followed by 300 s of dissociation in running buffer. Regeneration of the sensor chip for subsequent injections is accomplished by pulse of 0.1% SDS. Mass transport experiments have detected little difference in response at different flow rates thus validating data from kinetic experiments. Sensorgrams are prepared and globally fitted using nonlinear least-squares analysis and numerical integration of the differential rate equations with the Biacore Bioevaluation software. […] Each data set, which consists of a series of sensorgrams from injections of different concentration of analyte over the same surface, is analyzed using kinetic models from Bioevaluation software.

[4] = tested on: burn injury progression; settings: rat burn model; cited from earlier work
[5] = tested on: burn wounds; assay: Topical treatment of porcine deep partial-thickness burns (PLO gel); format: in vivo, pig; settings: applied topically to wounds
Description: Four female, 20-30 kg, domestic pigs were used for cutaneous wound procedures.
Study Protocol: The animals were sedated with Talazine (Tiletamine and Zolazepam, Fort Dodge Lab, Fort Dodge, Iowa) 5 mg/kg IM. The pigs were then intubated endotracheally and maintained under a surgical plane of anesthesia with isoflurane 0.5-2.5% in room air. The flank and back hair were clipped with electric hair clippers and the skin was scrubbed with a povidone iodine solution.
Standardized deep partial-thickness burns were created on the animals' backs and flanks by applying a 2.5-cm by 2.5-cm, 150-gram aluminum bar preheated in hot water to 80° C. The burns were created on either side of the vertebral column between the forelegs and hind legs. The heated bar was wiped dry just prior to application to prevent water droplets from creating a steam burn on the skin. The bar was then placed at a vertical position perpendicular to the skin's surface and applied for a period of 20 seconds with all pressure supplied by gravity. […] 24 burns were evenly distributed on both sides of the back of four pigs. […] Debridement was performed by gently rubbing dry gauze against the surface of the burn until the necrotic epidermis was peeled away from the entire burn surface. Interventions: On the back skin of each pig, equal sets of 4 burns were randomly treated with one of the 6 study treatments. […]

[6] = biological target: T1, PDGF-BB; settings: previous studies; cited from earlier work
[7] = biological target: Transforming Growth Factor-Beta1 (TGF-β1) (Homo sapiens, UniProt P01137); assay: Surface plasmon resonance (Biacore) binding to growth factor; settings: plasmon surface resonance (Biacore T200)
Description: as §1

[8] = biological target: insulin-like growth factor-1 (IGF-1) (Homo sapiens, UniProt P05019); assay: as above; settings: plasmon surface resonance (Biacore T200)
Description: as §1

[9] = tested on: mesenchymal cell; settings: in solution, intrinsically and synergistically with growth factors, especially PDGF-BB; cited from earlier work
[10] = tested on: Adult human dermal fibroblasts CF31 cells; assay: Fibroblast metabolism (XTT) assay with 1 nM PDGF-BB, 6 days; format: cell-based; settings: FIG. 4
Description: Adult human dermal fibroblasts CF31 cells at 1000 cells/well were seeded in a collagen-coated 96-well plate in DMEM overnight, then 1 nM PDGF-BB with peptides at indicated doses was added and cells were incubated at 37° C. for 6 days. Then cell metabolism was measured by XTT assay by reading OD at 450 nm. Each point represents the mean of 6 replicates with a typical SD=5-10% around the mean (not shown for graft clarity).
Adult human dermal fibroblasts, CF31, at 1000 cells/well were incubated at 37° C. in a collagen-coated 96-well plate with DMEM, 1 nM PDGF-BB with peptides at indicated doses for 6 days and then cell metabolism was measured by XTT assay, reading OD at 450 nm. Data represent the mean of 6 replicates.
P12, P46, cNP7 and cNP8 were compared for their ability to promote the survival of adult human dermal fibroblasts in the presence of PDGF-BB. Adult human dermal fibroblasts at 1000 cells/well were incubated in a collagen-coated 96-well plate with DMEM, 1 nM PDGF-BB with peptides at indicated doses for 6 days and then cell metabolism was measured by XTT assay. Data represent the mean of 6 replicates (FIG. 4).

Question: Which burn injury progression ([1]; porcine burn model) does the source give for `CC[C@H](C)[C@H](NC(=O)[C@H](Cc1ccc(O)cc1)NC(=O)[C@H](CCCCN)NC(=O)[C@H](CO)NC(=O)[C@@H](NC(=O)[C@H](Cc1c[nH]cn1)NC(=O)[C@H](CO)NC(=O)[C@@H]1CCCN1)[C@@H](C)CC)C(=O)N[C@@H](CC(C)C)C(=O)N[C@@H](CCCNC(=N)N)C(=O)N[C@@H](Cc1c[nH]c2ccccc12)C(=O)N[C@@H](CCCNC(=N)N)C(=O)N1CCC[C@H]1C(=O)N[C@@H](CCCCN)C(=O)O` [P12, PSHISKYILRWRPK] (H-PSHISKYILRWRPK-OH; N-terminus and C-terminus assumed) here?
Answer: limits burn injury progression

Question: What about the scarring ([1]; vertical burn injury progression pig model) of the same molecule?
Answer: mitigates scarring

Question: What about the “protection from cell death” value [2] of the same molecule?
Answer: protects adult human dermal fibroblasts (AHDF) from cell death

Question: And the “binding to PDGF-BB” value [3]?
Answer: bind

Question: And the burn injury progression [4]?
Answer: limits burn injury progression

Question: What about the promotion of healing [5] of the same molecule?
Answer: do not promote healing

Question: And the “interaction with PDGF-BB” value [6]?
Answer: interacts with platelet-derived growth factor-BB

Question: What about the “binding to TGF-β1” value [7] of the same molecule?
Answer: bind

Question: What about the “binding to IGF-1” value [8] of the same molecule?
Answer: did not bind

Question: And the “mesenchymal cell growth, proliferation and migration” value [9]?
Answer: promotes mesenchymal cell growth, proliferation and migration

Question: What about the “promotion of survival of adult human dermal fibroblasts in the presence of PDGF-BB” value [10] of the same molecule?
Answer: promoted the survival of adult human dermal fibroblasts
